In paper PMC7804450:
These are yes or no findings as the source states them, for the method shown. For some of these results: In cells and extracts the contact can be indirect. Some entries that bind do so weakly or less than the wild type. Each block holds one binder with its values, some of them ahead of it.

Chains of the proteins cited; added tags and fusions are not shown.
UniProt P49815: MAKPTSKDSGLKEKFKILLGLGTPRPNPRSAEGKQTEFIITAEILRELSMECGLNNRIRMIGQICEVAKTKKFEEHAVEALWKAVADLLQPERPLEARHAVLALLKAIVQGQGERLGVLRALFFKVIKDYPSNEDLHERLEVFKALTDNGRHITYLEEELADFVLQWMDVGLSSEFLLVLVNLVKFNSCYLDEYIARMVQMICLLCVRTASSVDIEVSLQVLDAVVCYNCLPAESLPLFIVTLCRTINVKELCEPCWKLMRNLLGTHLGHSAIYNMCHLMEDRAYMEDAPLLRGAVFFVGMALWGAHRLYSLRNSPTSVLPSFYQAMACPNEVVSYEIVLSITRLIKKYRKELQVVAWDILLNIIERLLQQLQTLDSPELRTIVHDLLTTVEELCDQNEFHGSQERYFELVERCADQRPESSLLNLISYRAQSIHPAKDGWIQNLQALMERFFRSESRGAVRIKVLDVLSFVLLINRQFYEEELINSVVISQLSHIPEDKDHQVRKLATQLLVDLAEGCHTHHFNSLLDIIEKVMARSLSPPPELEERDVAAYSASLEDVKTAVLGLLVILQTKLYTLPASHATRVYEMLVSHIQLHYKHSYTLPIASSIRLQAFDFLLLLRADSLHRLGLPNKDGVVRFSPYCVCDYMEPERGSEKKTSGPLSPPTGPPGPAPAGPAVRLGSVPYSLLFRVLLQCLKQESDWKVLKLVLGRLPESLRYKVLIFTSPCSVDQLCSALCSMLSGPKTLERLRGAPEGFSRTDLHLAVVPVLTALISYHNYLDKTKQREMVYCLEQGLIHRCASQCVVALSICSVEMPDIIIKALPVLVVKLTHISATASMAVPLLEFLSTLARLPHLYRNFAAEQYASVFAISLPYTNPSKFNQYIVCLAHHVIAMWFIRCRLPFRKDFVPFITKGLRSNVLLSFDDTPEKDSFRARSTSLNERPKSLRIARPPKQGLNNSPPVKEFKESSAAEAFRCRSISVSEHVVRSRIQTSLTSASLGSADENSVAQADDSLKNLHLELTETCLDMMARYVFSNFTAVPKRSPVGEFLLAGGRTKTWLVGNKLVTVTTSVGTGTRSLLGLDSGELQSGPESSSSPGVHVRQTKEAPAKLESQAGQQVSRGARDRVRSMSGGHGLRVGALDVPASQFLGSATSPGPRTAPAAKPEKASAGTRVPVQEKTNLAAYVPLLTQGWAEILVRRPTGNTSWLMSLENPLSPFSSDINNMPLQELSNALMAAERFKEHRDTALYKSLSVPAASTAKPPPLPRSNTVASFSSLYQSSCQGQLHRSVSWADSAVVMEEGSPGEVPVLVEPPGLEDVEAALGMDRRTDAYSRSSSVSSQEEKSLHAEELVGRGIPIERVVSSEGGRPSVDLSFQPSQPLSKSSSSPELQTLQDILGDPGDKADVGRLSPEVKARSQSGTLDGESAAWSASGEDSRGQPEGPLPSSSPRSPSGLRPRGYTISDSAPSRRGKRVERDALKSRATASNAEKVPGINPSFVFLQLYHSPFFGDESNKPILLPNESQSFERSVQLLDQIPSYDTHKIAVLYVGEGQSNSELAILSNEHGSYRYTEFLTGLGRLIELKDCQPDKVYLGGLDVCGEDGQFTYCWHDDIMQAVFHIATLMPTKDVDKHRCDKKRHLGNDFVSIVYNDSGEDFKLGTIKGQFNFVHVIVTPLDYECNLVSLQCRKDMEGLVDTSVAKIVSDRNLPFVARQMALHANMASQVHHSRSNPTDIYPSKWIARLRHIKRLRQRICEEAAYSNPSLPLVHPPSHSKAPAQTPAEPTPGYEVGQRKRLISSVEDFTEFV

Legend:
[1] = target: T1, full-length TSC1 (immunoprecipitation assays) (human) (UniProt Q92574); assay: co-IP; immunoprecipitation assays of Supplementary Fig. 6f, g, i; host, tags and bait not told in the text shown
T1 sequence: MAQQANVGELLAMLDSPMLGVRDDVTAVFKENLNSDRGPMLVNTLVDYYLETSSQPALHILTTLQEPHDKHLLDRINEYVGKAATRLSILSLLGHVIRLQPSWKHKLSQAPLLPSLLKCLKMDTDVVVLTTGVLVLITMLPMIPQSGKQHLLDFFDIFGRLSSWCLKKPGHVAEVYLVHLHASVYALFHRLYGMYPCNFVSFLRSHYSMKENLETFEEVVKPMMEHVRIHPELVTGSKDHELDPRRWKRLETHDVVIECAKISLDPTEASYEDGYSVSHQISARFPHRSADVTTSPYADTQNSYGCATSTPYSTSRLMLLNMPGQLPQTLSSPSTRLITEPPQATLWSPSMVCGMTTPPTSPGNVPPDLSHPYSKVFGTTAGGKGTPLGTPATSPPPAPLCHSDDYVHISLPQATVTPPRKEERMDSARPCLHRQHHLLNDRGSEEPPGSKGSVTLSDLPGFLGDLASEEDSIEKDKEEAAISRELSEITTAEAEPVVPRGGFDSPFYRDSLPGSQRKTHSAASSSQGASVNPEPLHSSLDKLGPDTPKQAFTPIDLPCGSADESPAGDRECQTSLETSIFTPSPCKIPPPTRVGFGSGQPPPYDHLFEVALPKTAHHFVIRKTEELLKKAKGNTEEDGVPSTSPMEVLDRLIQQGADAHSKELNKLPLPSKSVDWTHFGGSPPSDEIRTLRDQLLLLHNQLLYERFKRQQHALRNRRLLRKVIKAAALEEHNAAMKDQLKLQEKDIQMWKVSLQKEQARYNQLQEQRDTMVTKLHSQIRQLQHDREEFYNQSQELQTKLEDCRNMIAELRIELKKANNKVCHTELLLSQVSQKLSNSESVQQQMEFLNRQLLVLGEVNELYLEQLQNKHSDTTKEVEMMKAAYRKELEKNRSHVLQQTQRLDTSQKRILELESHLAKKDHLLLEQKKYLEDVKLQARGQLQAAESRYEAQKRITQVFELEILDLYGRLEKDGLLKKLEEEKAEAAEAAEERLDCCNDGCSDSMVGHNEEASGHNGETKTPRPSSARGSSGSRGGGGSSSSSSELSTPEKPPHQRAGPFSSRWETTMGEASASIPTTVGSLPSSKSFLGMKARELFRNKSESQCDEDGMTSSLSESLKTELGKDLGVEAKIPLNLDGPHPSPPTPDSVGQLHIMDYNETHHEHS

[2] = target: TSC2 (immunoprecipitation assays) (human), P49815; assay: as above; settings: remark: other sources report otherwise
[3] = target: tuberous sclerosis complex 2 (TSC2), human, subunit of the purified TSC complex (human), P49815; assay: cryo-EM structure; human TSC complex (TSC1, TSC2, TBC1D7) co-expressed in Expi293F, purified, cross-linked by Grafix (glutaraldehyde); single particle reconstruction, 4.4 Å overall, core 3.6 Å, wings 3.9 and 4.1 Å; both purified; settings: remark: other sources report otherwise
[4] = target: TSC2 (immunoprecipitation assays) (human) (UniProt P49815); assay: co-IP; immunoprecipitation assays of Supplementary Fig. 6f, g, i; host, tags and bait not told in the text shown

- binding [1]: binds
B1: TBC1D7 (immunoprecipitation assay) (protein, UniProt Q9P0N9 1-293)
chain: MTEDSQRNFRSVYYEKVGFRGVEEKKSLEILLKDDRLDTEKLCTFSQRFPLPSMYRALVWKVLLGILPPHHESHAKVMMYRKEQYLDVLHALKVVRFVSDATPQAEVYLRMYQLESGKLPRSPSFPLEPDDEVFLAIAKAMEEMVEDSVDCYWITRRFVNQLNTKYRDSLPQLPKAFEQYLNLEDGRLLTHLRMCSAAPKLPYDLWFKRCFAGCLPESSLQRVWDKVVSGSCKILVFVAVEILLTFKIKVMALNSAEKITKFLENIPQDSSDAIVSKAIDLWHKHCGTPVHSS

- binding [2]: no binding
B2: TBC1D7 (immunoprecipitation assay), Q9P0N9 1-293 (protein)
chain: MTEDSQRNFRSVYYEKVGFRGVEEKKSLEILLKDDRLDTEKLCTFSQRFPLPSMYRALVWKVLLGILPPHHESHAKVMMYRKEQYLDVLHALKVVRFVSDATPQAEVYLRMYQLESGKLPRSPSFPLEPDDEVFLAIAKAMEEMVEDSVDCYWITRRFVNQLNTKYRDSLPQLPKAFEQYLNLEDGRLLTHLRMCSAAPKLPYDLWFKRCFAGCLPESSLQRVWDKVVSGSCKILVFVAVEILLTFKIKVMALNSAEKITKFLENIPQDSSDAIVSKAIDLWHKHCGTPVHSS

- binding [3]: no binding
B3: Tre2-Bub2-Cdc16-1 domain family member 7 (TBC1D7), human, subunit of the purified TSC complex, Q9P0N9 1-293 (protein)
chain: MTEDSQRNFRSVYYEKVGFRGVEEKKSLEILLKDDRLDTEKLCTFSQRFPLPSMYRALVWKVLLGILPPHHESHAKVMMYRKEQYLDVLHALKVVRFVSDATPQAEVYLRMYQLESGKLPRSPSFPLEPDDEVFLAIAKAMEEMVEDSVDCYWITRRFVNQLNTKYRDSLPQLPKAFEQYLNLEDGRLLTHLRMCSAAPKLPYDLWFKRCFAGCLPESSLQRVWDKVVSGSCKILVFVAVEILLTFKIKVMALNSAEKITKFLENIPQDSSDAIVSKAIDLWHKHCGTPVHSS

- binding [4]: binds
B4: full-length TSC1 (immunoprecipitation assays) (protein, UniProt Q92574 1-1164)
chain: MAQQANVGELLAMLDSPMLGVRDDVTAVFKENLNSDRGPMLVNTLVDYYLETSSQPALHILTTLQEPHDKHLLDRINEYVGKAATRLSILSLLGHVIRLQPSWKHKLSQAPLLPSLLKCLKMDTDVVVLTTGVLVLITMLPMIPQSGKQHLLDFFDIFGRLSSWCLKKPGHVAEVYLVHLHASVYALFHRLYGMYPCNFVSFLRSHYSMKENLETFEEVVKPMMEHVRIHPELVTGSKDHELDPRRWKRLETHDVVIECAKISLDPTEASYEDGYSVSHQISARFPHRSADVTTSPYADTQNSYGCATSTPYSTSRLMLLNMPGQLPQTLSSPSTRLITEPPQATLWSPSMVCGMTTPPTSPGNVPPDLSHPYSKVFGTTAGGKGTPLGTPATSPPPAPLCHSDDYVHISLPQATVTPPRKEERMDSARPCLHRQHHLLNDRGSEEPPGSKGSVTLSDLPGFLGDLASEEDSIEKDKEEAAISRELSEITTAEAEPVVPRGGFDSPFYRDSLPGSQRKTHSAASSSQGASVNPEPLHSSLDKLGPDTPKQAFTPIDLPCGSADESPAGDRECQTSLETSIFTPSPCKIPPPTRVGFGSGQPPPYDHLFEVALPKTAHHFVIRKTEELLKKAKGNTEEDGVPSTSPMEVLDRLIQQGADAHSKELNKLPLPSKSVDWTHFGGSPPSDEIRTLRDQLLLLHNQLLYERFKRQQHALRNRRLLRKVIKAAALEEHNAAMKDQLKLQEKDIQMWKVSLQKEQARYNQLQEQRDTMVTKLHSQIRQLQHDREEFYNQSQELQTKLEDCRNMIAELRIELKKANNKVCHTELLLSQVSQKLSNSESVQQQMEFLNRQLLVLGEVNELYLEQLQNKHSDTTKEVEMMKAAYRKELEKNRSHVLQQTQRLDTSQKRILELESHLAKKDHLLLEQKKYLEDVKLQARGQLQAAESRYEAQKRITQVFELEILDLYGRLEKDGLLKKLEEEKAEAAEAAEERLDCCNDGCSDSMVGHNEEASGHNGETKTPRPSSARGSSGSRGGGGSSSSSSELSTPEKPPHQRAGPFSSRWETTMGEASASIPTTVGSLPSSKSFLGMKARELFRNKSESQCDEDGMTSSLSESLKTELGKDLGVEAKIPLNLDGPHPSPPTPDSVGQLHIMDYNETHHEHS
